Assay results from PubChem BioAssay AID1671190 (National Center for Advancing Translational Sciences (NCATS), 2021).
Hit rate of the full screen: of about 580,000 compounds, about 6,100 (1.1%) were called active. This list was built around the results that the source calls inconclusive (neither active nor inactive); the mix of calls is not that of the screen. The call rests on the fitted dose curve; in most records, active means well fitted inhibition curve with a large enough effect; inconclusive means small, poorly fitted or top-dose-only effect, or another doubt; inactive means no such curve, though single readings can be large or run the other way. Potencies of inconclusive entries are doubtful fits and often do not repeat.

Amino acid sequences for entries named in this document (tags omitted). A change or cut given only in a name is not applied to a line headed by its entry.
UniProt P18054: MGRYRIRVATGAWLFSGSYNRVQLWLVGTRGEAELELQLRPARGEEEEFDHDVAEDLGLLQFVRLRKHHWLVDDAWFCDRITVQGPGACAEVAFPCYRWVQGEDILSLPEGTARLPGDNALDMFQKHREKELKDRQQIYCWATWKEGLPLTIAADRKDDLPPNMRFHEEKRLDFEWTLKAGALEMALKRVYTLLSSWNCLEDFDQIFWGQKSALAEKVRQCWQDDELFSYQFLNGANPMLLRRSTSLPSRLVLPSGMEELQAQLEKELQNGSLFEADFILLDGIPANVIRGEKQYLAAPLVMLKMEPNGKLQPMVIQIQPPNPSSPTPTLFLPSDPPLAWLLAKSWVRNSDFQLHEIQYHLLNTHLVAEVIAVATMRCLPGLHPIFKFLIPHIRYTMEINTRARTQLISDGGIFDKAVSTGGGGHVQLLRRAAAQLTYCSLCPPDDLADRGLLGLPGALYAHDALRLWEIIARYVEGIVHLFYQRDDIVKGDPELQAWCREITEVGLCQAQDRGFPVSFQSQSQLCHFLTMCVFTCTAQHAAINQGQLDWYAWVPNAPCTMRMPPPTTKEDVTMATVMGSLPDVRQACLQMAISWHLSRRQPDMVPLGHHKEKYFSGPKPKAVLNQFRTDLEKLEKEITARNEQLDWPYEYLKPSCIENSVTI

Molecular target: Polyunsaturated fatty acid lipoxygenase ALOX12 (Homo sapiens) (UniProt P18054)
Assay: Primary qHTS assay for inhibitors of human arachidonate 12S-lipoxygenase (ALOX12): Round 2
Conditions: purified 12hLO, xylenol orange hydroperoxide absorbance; series mostly up to 108 µM
Procedure, shortened: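 Purified human 12hLO at 150 nM in 25 mM Hepes, 0.01% Triton X-100, pH 7.0, preincubated 15 min at room temperature with compound. Reaction started with 40 uM arachidonic acid, 30 min at room temperature. Hydroperoxide measured by Fe-xylenol orange, 573/405 nm absorbance ratio.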
Potency means the concentration at half of the fitted maximal effect.

SMILES	Potency
Cc1ccc2[nH]c(=O)c3cc(C(=O)NCc4cccc(Cl)c4)sc3c2c1	inconclusive: 126 µM [inhibitor, single point]
CCC(C)NC(=O)N1CCC(Cc2nc(-c3ccncc3)n[nH]2)CC1 (centres undefined)	inconclusive: 3.55 µM [inhibitor, full curve, poor fit]
Cc1ccc(-c2csc(C(C#N)=C(O)CN3CCN(C(=O)c4ccco4)CC3)n2)cc1	active: 44.7 µM
Cc1cccc(NC(=O)c2ccoc2C)n1	inactive
Cc1ccsc1/C=N/Nc1ncnc2nc[nH]c12	inactive
COCc1cnc2c(c1SCC(=O)Nc1ccccc1F)c(=O)n(C)c(=O)n2C	inactive
CN(C)CCCN(Cc1cc2cc3c(cc2[nH]c1=O)OCO3)C(=S)NCc1ccco1	inactive
CCOC(=O)c1cc2occc2n1CC(=O)N1CCN(C(=O)c2ccco2)CC1	inconclusive: 2.82 µM [inhibitor, full curve, poor fit]
O=C(/C=C/c1ccc2c(c1)OCCO2)c1ccc(O)cc1	inconclusive: 89.1 µM [inhibitor, single point]
COc1ccc(C)cc1NC(=O)c1ccc2c(c1)NC(=O)CS2	inconclusive: 20 µM [inhibitor, partial curve, poor fit]
Cn1cncc1C(=O)NC1CCN(c2ccc(=O)n(C)n2)CC1	inactive
O=C(Cc1ccccc1[N+](=O)[O-])NCCc1ccc(F)cc1	inconclusive: 112 µM [inhibitor, single point]
CCOC(=O)c1c(C)oc2nc(C)nc(N(C)Cc3ccccc3)c12	inactive
CC(C)CC1NC2(C(=O)N(C)c3ccccc32)C2C(=O)N(C(C)C)C(=O)C12 (centres undefined)	inconclusive: 31.6 µM [inhibitor, single point]
c1ccc(COC(CN2CCCCCC2)CN2CCCCCC2)cc1	inconclusive: 79.4 µM [inhibitor, single point]
COc1ccc(OCC(O)CN(CCO)CC(O)Cn2ccc3ccccc32)cc1 (centres undefined)	inconclusive: 50.1 µM [inhibitor, partial curve]
O=C(c1cc(-c2ccccc2)on1)N(Cc1ccco1)Cc1ccccc1F	inconclusive: 44.7 µM [inhibitor, partial curve, poor fit]
COc1ccc(-c2nc(=S)c3c([nH]2)Oc2ccc(C)cc2C3)cc1O	inconclusive: 158 µM [inhibitor, single point]
Cc1ccc(S(=O)(=O)N(C)C)cc1NC(=S)NC12CC3CC(CC(C3)C1)C2	inconclusive: 44.7 µM [inhibitor, partial curve, poor fit]

A different layout for 2 compounds above:
CCOC(=O)c1cc2occc2n1CC(=O)N1CCN(C(=O)c2ccco2)CC1
  Potency: inconclusive: 2.82 µM [inhibitor, full curve, poor fit]
COc1ccc(OCC(O)CN(CCO)CC(O)Cn2ccc3ccccc32)cc1 (centres undefined)
  Potency: inconclusive: 50.1 µM [inhibitor, partial curve]
